According to EP0522091B9, “USE OF A MBP PEPTIDE FOR THE PREPARATION OF A MEDICAMENT FOR THE TREATMENT OF MULTIPLE SCLEROSIS” (BRIGHAM AND WOMEN'S HOSPITAL, priority 1990, dated 2007):
At least one peptide structure holds a part that was inferred or is arguable (an end, a ring closure or a residue). No end group written: not given here.

Experiments:
[1] = system: T-cell lines generated from MNC cultured with MBP; test: Family study: number of T-cell lines reactive with MBP peptides; type: cell-based, human; details: 288 wells per subject, day 16, SI>3, delta CPM>500
[2] = system: MBP reactive T-cell lines; test: Reactivity of MBP reactive T-cell lines to overlapping MBP peptides; type: cell-based, human; details: subjects with MS compared with controls (Figure 3)

Row | Sequence | number of lines reactive with each peptide ([1]; P1, parent (DR4, DRw53, DQw3; DRw11, DRw52, DQw1)) | number of lines reactive with each peptide ([1]; P2, parent (DR2, DQw1; DRw6, DRw52, DQw1)) | number of lines reactive with each peptide ([1]; PATIENT (DR2, DQw1; DRw11, DRw52, DQw1)) | number of lines reactive with each peptide ([1]; S1, sibling (DR4, DRw53, DQw3; DRw6, DRw52, DQw1)) | number of lines reactive with each peptide ([1]; S2, sibling (DR4, DRw53, DQw3; DRw6, DRw52, DQw1)) | number of lines reactive with each peptide ([1]; S3, sibling (DR2, DQw1; DRw4, DRw53, DQw3)) | mean frequency of T-cell lines reactive with the peptide [2]
1 | FKGVDAQGTLSKIFKLGGRD [MBP residues 143-168] | 14 | 0 | 41 | 3 | 2 | 2 | high frequencies
2 | RPGFGYGGRASDYKSAHKG [MBP residues 124-142, RPGFGYGGRASDYKSAHKG] |  |  |  |  |  |  | Significant but less striking increases
3 | RHRDTGILDSIGRFFGGDRG [MBP residues 31-50] |  |  |  |  |  |  | predominantly observed in control subjects
4 | HHPARTAHYGSLPQKSHGRT [MBP residues 61-82] |  |  |  |  |  |  | Significant but less striking increases
